# These are yes or no findings as the source states them, for the method shown. In cells and extracts the contact can be indirect. Some binding calls cover weakened binding; strength is not graded here.
# Chains of the proteins cited; added tags and fusions are not shown.
# UniProt Q91XJ1: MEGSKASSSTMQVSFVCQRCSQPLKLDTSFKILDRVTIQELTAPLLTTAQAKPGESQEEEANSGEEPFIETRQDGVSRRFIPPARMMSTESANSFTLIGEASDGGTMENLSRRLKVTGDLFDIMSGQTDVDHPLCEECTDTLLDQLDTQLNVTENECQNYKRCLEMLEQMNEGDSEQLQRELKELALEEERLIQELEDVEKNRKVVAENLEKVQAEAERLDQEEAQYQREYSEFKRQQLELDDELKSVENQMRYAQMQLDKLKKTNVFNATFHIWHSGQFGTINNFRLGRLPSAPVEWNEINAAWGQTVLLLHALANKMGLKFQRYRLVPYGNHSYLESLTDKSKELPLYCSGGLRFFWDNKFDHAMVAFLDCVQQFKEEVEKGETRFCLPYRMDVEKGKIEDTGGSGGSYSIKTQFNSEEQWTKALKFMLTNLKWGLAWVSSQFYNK
# UniProt P49950: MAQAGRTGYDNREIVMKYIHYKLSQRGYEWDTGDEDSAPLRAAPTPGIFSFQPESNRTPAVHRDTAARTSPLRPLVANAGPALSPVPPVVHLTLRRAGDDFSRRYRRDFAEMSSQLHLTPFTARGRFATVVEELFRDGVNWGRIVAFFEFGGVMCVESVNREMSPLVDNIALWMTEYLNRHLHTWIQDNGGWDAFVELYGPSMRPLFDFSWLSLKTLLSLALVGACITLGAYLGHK
# Target: beclin1 (rat (endogenous in corpus luteum)) (UniProt Q91XJ1)
# Experiment: co-IP; fresh corpus luteum of pregnant rats (Day 1, 4 and 10; Day 1 with or without echinomycin) homogenized in immunoprecipitation lysis buffer; precipitated with anti-BNIP3 or anti-beclin1 antibody overnight at 4°C on Protein A/G PLUS-agarose, washed with PBS, blotted for Bcl-2
substance,measurement,value
Bcl-2 (from UniProt P49950 1-236),binding,binds

# Reference: article PMC7848109
